Measured values published in patent US20200147235A1.
These are yes or no findings as the source states them, for the method shown. Some results given as binding are weak or reduced against the parent protein; the word gives no strength.

B1: Anti-CD98 murine hybridoma antibody Ab1 (antibody, V domains shown)
VH: EVKLVESGGGLVQPGGSLRLSCATSGFTFTDYYMSWVRQPPGKALEWLGFIRNPANVYTTEYSASVKGRFTISRDNSQSILYLQMNTLRAEDSATYYCARASYGNSEGWFAYWGQGTLVTVSA
VL: DIVMSQSPSSLAVSVGEKVTMSCKSSQNLLYNNNQKNYLAWYQQKPGQSPKLLIYWASTRESGVPDRFTGSGSGTDFTLTISSVKAEDLAVYYCQQYYSYPRTFGGGTKLEIK
B2: Anti-CD98 murine hybridoma antibody Ab5 (antibody, V domains shown)
VH: EVKLVESGGGLVQPGGSLRLSCATSGFTFTDYYMTWVRQPPGKALEWLGFIRNKANGYTTEYSASVKGRFTISRDNSLSILYLQMNTLRAEDSATYYCARASYVNSEGWFAYWGQGTLVTVSA
VL: DIVMSQSPSSLAVSVGEKVTMSCKSSQSLLYSSNQKNYLAWYQQKLGQSPKLLIYWASTRESGVPDRFTGSGSGTDFTLTISSVKAEDLAVYYCQHYYSYPRTFGGGTKLEIK
B3: Anti-CD98 murine hybridoma antibody Ab3 (antibody, V domains shown)
VH: EVKLVESGGGLVQPGNSLRLSCATSGFTFIDYYMSWVRQSPGKALEWLGFIRNKANGYTTEYSASVKGRFTISRDNSQSILYLQMDTLRAEDSATYYCTRDRPAWFVYWGQGTLVTVSA
VL: DIVMSQSPSSLAVSVGEKVTMSCKSSQSLLYSSNQKNYLAWYQQKPGQSPKLLIYWASTRESGVPDRFTGSGSGTDFTLTFSSVRAEDLAVYYCQQYYSYPYTFGGGTKLEIK
B4: Anti-CD98 rat hybridoma antibody Ab10 (antibody, V domains shown)
VH: EVQLVESGGGLVQPGRSLKLSCAASGFTFSDYAMAWVRQAPKKSLEWVATIIYDGRGTYCRDSVKGRFTISRDNAKSTLYLQMDSLRSEDTATYYCARQGDGTYHYWGYFDYWGQGVMVTVSS
VL: DIVMTQSPSSLAVSAGETVTINCKSSQSLLSSGNQKNYLAWYQQKPGQSPKLLIYWASTRQSGVPDRFIGSGSGTDFTLTISSVQAEDLAIYYCQQYYDTPYTFGAGTKVDLK
B5: Anti-CD98 rat hybridoma antibody Ab15 (antibody, V domains shown)
VH: EVQLVESGGGLVQPGRSLKLSCAASGFTFSDYTMAWVRQAPKKGLEWVATIIYDGRGTYYRDSVKGRFTISRDNAKSTLYLQMDSLRSEDTATYYCARQSDGTYYYWGYFDYWGQGVMVTVSS
VL: DIVMTQSPSSLAVSAGETVTINCKSSQSLLFSGNQKNYLAWYQQKPGQSPKLLIYWASTRQSGVPDRFIGSGSGTDFTLTIRSVQAEDLAIYYCQQYYDSPYTFGAGTKLELK
B6: Anti-CD98 rat hybridoma antibody Ab11 (antibody, V domains shown)
VH: EVQLVESGGGLVQPGRSLKLSCAASGFTFSDYAMAWVRQAPKKGLEWVAGIIYDGRGTYYRDSVKGRFTISRDNAKSTLYLQMDSLRSEDTATYYCARQGDGTYYYWGYFDYWGQGVMVTVSS
VL: DIVMTQSPSSLAVSAGETVTINCRSSQSLLSSGNQKNYLAWYQQKPGQSPKLLIYWASTRQSGVPDRFIGSGSGTDFTLTISSVQAEDLAIYYCQQYYDTPYTFGAGTKLELK
B7: Anti-CD98 rat hybridoma antibody Ab6 (antibody, V domains shown)
VH: QVQLKESGPGLAQPSQTLSLTCTVSGFSLSTYGVIWLRQPPGKGLEWMGVIWTNGNTNYNSTLKSRLSISRDTSESQVYLQMNSLQTEDTATYYCARHYYDGAYYYGYFDYWGQGVMVTVSS
VL: DIVMTQTPSSQAVSAGEKVTMSCKSSQSLLYSENKKNYLAWYQQKPGQSPKLLIYWASTRESGVPDRFIGSGSGTDFTLTISSVQAEDLAVYYCQQYYYFPYTFGAGTKLELK
B8: Anti-CD98 rat hybridoma antibody Ab7 (antibody, V domains shown)
VH: QVQLKESGPGLVQPSQTLSLTCTVSGFSLSTYGVIWVRQPPGKGLEWMGVIWANGNTNYNSTLKSRLSISRDTSKSQVYLKMNSLQTEDTATYYCARHYYDGTYYYGYFDYWGQGVMVTVSS
VL: DIVMTQTPSSQAVSAGEKVTMNCKSSQSLLYSENKKNYLAWYQQKPGQSPKLLIYWASTRESGVPDRFIGSGSGTDFTLTISSVQAEDLAVYYCQQYYYFPYTFGPGTKLELK
B9: Anti-CD98 rat hybridoma antibody Ab9 (antibody, V domains shown)
VH: QVQLKESGPGLVQPSQTLSLTCAVSGFSLSNYGVIWVRQPPGKGLEWMAVIWTNGNTNYNSTLKSRLSISRDTSKSQVYLKMNSLQTEDTATYYCARHYYDGTYYYGYFDYWGQGVMVTVSS
VL: DIVMTQTPSSQAVSAGEKVTMSCKSSQSLLYTENKKNYLAWYQQKPGQSPKLLIYWASTRESGVPDRFMGSGSGTDFTLTISSVQAEDLAVYYCQQYYYFPYMFGAGTKLELK

biological target: Human CD98 (human); assay: hybridoma screening: ELISA on CD98-ECD, flow cytometry on CD98-expressing cells

binding, binds:
B1, B2, B3, B4, B5, B6, B7, B8, B9
